Reference: patent US20210332123A1 (SUZHOU KANOVA BIOPHARMACEUTICAL, published 2021)
Results are given in words; binding and its absence hold for the method and conditions named. Some binding calls cover weakened binding; strength is not graded here.

T1: cynomolgus IL-25 (cynomolgus, UniProt G7P9V9 33-176)
T1 construct: In-house production
T1 sequence: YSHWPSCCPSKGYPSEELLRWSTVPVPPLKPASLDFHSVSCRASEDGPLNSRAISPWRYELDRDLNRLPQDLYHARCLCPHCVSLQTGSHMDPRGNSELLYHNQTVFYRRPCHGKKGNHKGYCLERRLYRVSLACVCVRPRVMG


Legend:
cynomolgus IL-25 [1] = biological target: T1, cynomolgus IL-25; test: ELISA, plate coated with cynomolgus IL-25
cynomolgus IL-25 [2] = biological target: T1, cynomolgus IL-25; test: ELISA (FIG. 4)

binding (cynomolgus IL-25 [1]) | binding (cynomolgus IL-25 [2]) | Binder
binds | binds | murine anti-IL-25 monoclonal antibody 18H3 (antibody, V domains shown, also called parental antibody; parental murine mAb) VH: QVTLKESGPGILQPSQTLSLTCSFSGFSLSTSGMGLGWIRQPSGKGLEWLAHIWWDDVKHYKPALKSRLTISKDISSSQVFLTIASVDTADTATYYCARMGQLHYYGYDYAMDYWGQGTSVTVSS VL: QIVLTQSPAIMSASPGEKVTISCSASSSVSYMYWYQQKPGSSPKPWIYRTSNLASGVPARFSGSGSGTSYSLTISSMEAEDAATYYCQLYHSYPPTWTFGGGTKLEIK
binds | binds | VH1-1 + VL2-1 (humanized anti-IL-25 antibody formed by VH1-1 and VL2-1) (antibody, V domains shown) VH: QVTLKESGPTLVKPTQTLTLTCTFSGFSLSTSGMGLGWIRQPPGKALEWLAHIWWDDVKHYKPALKSRLTITKDTSKNQVVLTMTNVDPVDTATYYCARMGQLHYYGYDYAMDYWGQGTLVTVSS VL: DIQLTQSPSFLSASVGDRVTITCSASSSVSYMYWYQQKPGKAPKPLIYRTSNLASGVPSRFSGSGSGTEYTLTISSMQPEDFATYYCQLYHSYPPTWTFGQGTKLEIK
binds | binds | VH2-1 + VL1-2 (humanized anti-IL-25 antibody formed by VH2-1 and VL1-2) (antibody, V domains shown) VH: QVTLRESGPALLKPTQTLTLTCTFSGFSLSTSGMGLGWIRQPPGKALEWLAHIWWDDVKHYKPALKSRLTISKDTSKNQVVLTITNVDPVDTATYYCARMGQLHYYGYDYAMDYWGQGTLVTVSS VL: EIVLTQSPATLSASPGERVTISCSASSSVSYMYWYQQKPGQAPRPLIYRTSNLASGVPARFSGSGSGTDYTLTISSMEPEDFATYYCQLYHSYPPTWTFGQGTKLEIK
